Test results published in PMC4613535.
No constants are given. Whether binding was seen depends on the method and setting. Some entries that bind do so weakly or less than the wild type.

T1: IRF3 (interferon-regulatory factor 3) (mouse (endogenous in RAW264.7)), P70671
T1 chain: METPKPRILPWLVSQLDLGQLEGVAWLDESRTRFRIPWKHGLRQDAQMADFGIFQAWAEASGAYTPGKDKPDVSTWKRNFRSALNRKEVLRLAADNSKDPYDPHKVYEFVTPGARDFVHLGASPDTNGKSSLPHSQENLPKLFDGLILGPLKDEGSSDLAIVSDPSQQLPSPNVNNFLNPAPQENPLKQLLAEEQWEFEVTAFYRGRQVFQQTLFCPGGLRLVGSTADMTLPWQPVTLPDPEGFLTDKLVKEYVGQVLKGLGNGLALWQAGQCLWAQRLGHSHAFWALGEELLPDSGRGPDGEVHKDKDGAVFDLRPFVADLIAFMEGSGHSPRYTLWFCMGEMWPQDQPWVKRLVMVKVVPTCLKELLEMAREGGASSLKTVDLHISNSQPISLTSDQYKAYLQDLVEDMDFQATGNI


Experiments:
[1] = target: T1, IRF3 (interferon-regulatory factor 3) …; test: native gel or EMSA; native PAGE of RAW cell lysates (10 μg of protein), no SDS or reducing agent, 1% sodium deoxycholate in the cathode chamber, immunoblot with an antibody to all forms of IRF3; cells stimulated with poly(I:C) (10 μg/ml) or LPS (100 ng/ml), without or with 1.0 μM BI-2536 or 1.0 μM JQ1; settings: remark: other sources report otherwise
[2] = target: IRF3 (interferon-regulatory factor 3) (mouse (endogenous in RAW264.7)) (UniProt P70671); test: condition: only cells incubated with 2.0 μM of the TBK1 inhibitor MRT67307; native gel or EMSA; as a1, but cells incubated for 1 h with 2.0 μM of the TBK1 inhibitor MRT67307 before stimulation with poly(I:C) or LPS

| Binder | binding [1] | binding [2] |
| --- | --- | --- |
| IRF3 (interferon-regulatory factor 3), P70671 1-419 (protein) METPKPRILPWLVSQLDLGQLEGVAWLDESRTRFRIPWKHGLRQDAQMADFGIFQAWAEASGAYTPGKDKPDVSTWKRNFRSALNRKEVLRLAADNSKDPYDPHKVYEFVTPGARDFVHLGASPDTNGKSSLPHSQENLPKLFDGLILGPLKDEGSSDLAIVSDPSQQLPSPNVNNFLNPAPQENPLKQLLAEEQWEFEVTAFYRGRQVFQQTLFCPGGLRLVGSTADMTLPWQPVTLPDPEGFLTDKLVKEYVGQVLKGLGNGLALWQAGQCLWAQRLGHSHAFWALGEELLPDSGRGPDGEVHKDKDGAVFDLRPFVADLIAFMEGSGHSPRYTLWFCMGEMWPQDQPWVKRLVMVKVVPTCLKELLEMAREGGASSLKTVDLHISNSQPISLTSDQYKAYLQDLVEDMDFQATGNI | binds |  |
| IRF3 (interferon-regulatory factor 3) (protein, UniProt P70671 1-419) METPKPRILPWLVSQLDLGQLEGVAWLDESRTRFRIPWKHGLRQDAQMADFGIFQAWAEASGAYTPGKDKPDVSTWKRNFRSALNRKEVLRLAADNSKDPYDPHKVYEFVTPGARDFVHLGASPDTNGKSSLPHSQENLPKLFDGLILGPLKDEGSSDLAIVSDPSQQLPSPNVNNFLNPAPQENPLKQLLAEEQWEFEVTAFYRGRQVFQQTLFCPGGLRLVGSTADMTLPWQPVTLPDPEGFLTDKLVKEYVGQVLKGLGNGLALWQAGQCLWAQRLGHSHAFWALGEELLPDSGRGPDGEVHKDKDGAVFDLRPFVADLIAFMEGSGHSPRYTLWFCMGEMWPQDQPWVKRLVMVKVVPTCLKELLEMAREGGASSLKTVDLHISNSQPISLTSDQYKAYLQDLVEDMDFQATGNI |  | no binding |
